# Assay results as given in PubChem BioAssay (NCATS).
# Inconclusive means that the source gave no clear call. Such entries were picked first, then a sample of the others. Potencies of inconclusive entries are doubtful fits and often do not repeat. Calls of active or inactive are those of the source. Calls follow the shape of the dose curve; as a rule, active = well fitted activation curve with a large enough effect; inconclusive = small, poorly fitted or top-dose-only effect, or another doubt; inactive = no such curve, though single readings can be large or run the other way.
# Target: Rap guanine nucleotide exchange factor 3 (Homo sapiens) (UniProt O95398)
# Test: Counterscreen qHTS for agonist of cAMP-regulated guanine nucleotide exchange factor 3 (EPAC1) (AID 1645889); also: nearly all actives have a fitted effect of over 40% in size; as to activation: % of control where 0% means no effect
# Conditions: EPAC1 Rap1B-BODIPY-GDP exchange, fluorescence; activation: at 154 µM (top of the series) unless noted
# Procedure, shortened: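 Rap1B-BODIPY-GDP 250 nM + GDP 50 uM; cpds 7-pt, final 9.74 nM–152 uM (activator mode) or from 7.32 nM upwards (inhibitor mode); RT; FI 480/540 nm at 5 and 30 min, then ± cAMP, reread.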
# Potency is read from the fitted curve at half-maximal effect.
Structure (SMILES),Potency,activation
CC(C)CS(=O)(=O)C1=NN2C(=N)/C(=C\c3ccc(OC(=O)c4ccco4)cc3)C(=O)N=C2S1,inactive,
c1ccc(N2[C@@H]3c4ccccc4C[C@H]2c2ccccc23)cc1,"inconclusive: 0.141 µM [activator, partial curve, poor fit]",
Cc1ccc2c(c1)CCCN2C(=O)c1cc(C)c(C)s1,"inconclusive: 63.1 µM [activator, partial curve, poor fit]",
CCCOC(=O)c1c(-c2ccccc2)c(-c2ccccc2)nn(C)c1=O,"inconclusive: 44.7 µM [activator, partial curve, poor fit]",
OC1(c2ccccc2)CC(c2ccccc2)c2ccccc2O1 (stereo not drawn),"inconclusive: 11.2 µM [activator, single point]",
CCOc1cccc(C(=O)N(Cc2ccc(F)cc2)Cc2ccco2)c1,,inconclusive: 50.6% [activator]
COc1cc(CCN(C(=O)c2cccc(S(C)(=O)=O)c2)C(CCc2ccccc2)c2nc3ccccc3[nH]2)cc(OC)c1 (stereo not drawn),"inconclusive: 6.31 µM [activator, partial curve]",
CCOc1c(Cl)cc(Cl)cc1CNCCSc1nnnn1C,,inconclusive: 32.3% [activator]
